Laboratory results from PMC11781168.
No constants are given. Whether binding was seen depends on the method and setting. In cells and extracts the contact can be indirect. Some results given as binding are weak or reduced against the parent protein; the word gives no strength. Where a sequence is shown, tags or fusion partners need not be part of it.

Assays:
Flag-EYA1 (human) = target: T1, Flag-EYA1 (human) (UniProt Q99502); assay: co-IP; HEK293T cells transiently transfected with Flag-EYA1 or/and HA-BCL2L12; lysates (NP-40 buffer, 4 C) immunoprecipitated with anti-Flag or anti-HA antibodies, immunoblot
T1 sequence: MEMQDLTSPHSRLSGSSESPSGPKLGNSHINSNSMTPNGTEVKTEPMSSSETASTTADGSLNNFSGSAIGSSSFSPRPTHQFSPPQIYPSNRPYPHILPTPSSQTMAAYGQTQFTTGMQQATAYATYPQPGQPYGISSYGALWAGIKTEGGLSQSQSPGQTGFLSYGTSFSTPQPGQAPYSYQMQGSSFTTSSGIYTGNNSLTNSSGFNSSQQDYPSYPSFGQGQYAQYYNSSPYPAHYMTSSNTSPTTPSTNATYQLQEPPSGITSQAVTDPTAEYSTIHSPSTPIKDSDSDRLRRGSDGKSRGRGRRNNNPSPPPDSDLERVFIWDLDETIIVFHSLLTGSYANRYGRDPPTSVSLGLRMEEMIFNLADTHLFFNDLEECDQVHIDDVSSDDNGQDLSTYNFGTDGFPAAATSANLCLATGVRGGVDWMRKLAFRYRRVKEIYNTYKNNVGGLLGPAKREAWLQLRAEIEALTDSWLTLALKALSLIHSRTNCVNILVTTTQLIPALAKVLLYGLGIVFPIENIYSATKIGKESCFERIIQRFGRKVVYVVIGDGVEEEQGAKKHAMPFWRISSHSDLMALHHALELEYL

HA-BCL2L12 [1] = target: T2, HA-BCL2L12 (UniProt Q9HB09); assay: as above
T2 sequence: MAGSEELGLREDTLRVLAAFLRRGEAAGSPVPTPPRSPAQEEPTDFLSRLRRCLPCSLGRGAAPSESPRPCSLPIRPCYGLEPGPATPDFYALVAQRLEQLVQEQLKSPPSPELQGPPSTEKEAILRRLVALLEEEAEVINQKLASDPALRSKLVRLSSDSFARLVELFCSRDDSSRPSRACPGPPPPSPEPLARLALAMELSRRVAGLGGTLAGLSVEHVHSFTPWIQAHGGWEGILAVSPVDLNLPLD

HA-BCL2L12 [2] = target: T2, HA-BCL2L12; assay: co-IP; same assay in U87MG cells transfected with Flag-EYA1 and HA-BCL2L12
HA-BCL2L12 [3] = target: T2, HA-BCL2L12; assay: co-IP; EYA1 truncations (N-terminal domain AA 1-322, C-terminal ED domain AA 323-592) with BCL2L12; cell line, tags and direction of the IP not stated for this panel

B1: HA-BCL2L12 (protein, UniProt Q9HB09 1-250)
chain: MAGSEELGLREDTLRVLAAFLRRGEAAGSPVPTPPRSPAQEEPTDFLSRLRRCLPCSLGRGAAPSESPRPCSLPIRPCYGLEPGPATPDFYALVAQRLEQLVQEQLKSPPSPELQGPPSTEKEAILRRLVALLEEEAEVINQKLASDPALRSKLVRLSSDSFARLVELFCSRDDSSRPSRACPGPPPPSPEPLARLALAMELSRRVAGLGGTLAGLSVEHVHSFTPWIQAHGGWEGILAVSPVDLNLPLD
Q: With B1 as the binder, how does the binding (Flag-EYA1 (human)) read?
A: Its binding is “binds”.

B2: Flag-EYA1 (enzyme, UniProt Q99502 1-592)
chain: MEMQDLTSPHSRLSGSSESPSGPKLGNSHINSNSMTPNGTEVKTEPMSSSETASTTADGSLNNFSGSAIGSSSFSPRPTHQFSPPQIYPSNRPYPHILPTPSSQTMAAYGQTQFTTGMQQATAYATYPQPGQPYGISSYGALWAGIKTEGGLSQSQSPGQTGFLSYGTSFSTPQPGQAPYSYQMQGSSFTTSSGIYTGNNSLTNSSGFNSSQQDYPSYPSFGQGQYAQYYNSSPYPAHYMTSSNTSPTTPSTNATYQLQEPPSGITSQAVTDPTAEYSTIHSPSTPIKDSDSDRLRRGSDGKSRGRGRRNNNPSPPPDSDLERVFIWDLDETIIVFHSLLTGSYANRYGRDPPTSVSLGLRMEEMIFNLADTHLFFNDLEECDQVHIDDVSSDDNGQDLSTYNFGTDGFPAAATSANLCLATGVRGGVDWMRKLAFRYRRVKEIYNTYKNNVGGLLGPAKREAWLQLRAEIEALTDSWLTLALKALSLIHSRTNCVNILVTTTQLIPALAKVLLYGLGIVFPIENIYSATKIGKESCFERIIQRFGRKVVYVVIGDGVEEEQGAKKHAMPFWRISSHSDLMALHHALELEYL
Q: B2 was tested. Which binding (HA-BCL2L12 [1]) did it give?
A: Its binding is “binds”.

Q: And the binding (HA-BCL2L12 [2])?
A: Its binding is “binds”.

B3: EYA1 C-terminal ED domain (AA 323-592) (domain or fragment, UniProt Q99502 323-592)
chain: RVFIWDLDETIIVFHSLLTGSYANRYGRDPPTSVSLGLRMEEMIFNLADTHLFFNDLEECDQVHIDDVSSDDNGQDLSTYNFGTDGFPAAATSANLCLATGVRGGVDWMRKLAFRYRRVKEIYNTYKNNVGGLLGPAKREAWLQLRAEIEALTDSWLTLALKALSLIHSRTNCVNILVTTTQLIPALAKVLLYGLGIVFPIENIYSATKIGKESCFERIIQRFGRKVVYVVIGDGVEEEQGAKKHAMPFWRISSHSDLMALHHALELEYL
Q: For B3, which binding (HA-BCL2L12 [3]) is on record?
A: Its binding is “binds”.
